Our source for the median seed-adjusted z-score values is PubChem BioAssay AID1347426 (Functional Genomics Laboratory (NCATS/FGL), 2020).

The whole screen tested about 31,000 sequences, of which about 1,400 (4.5%) were called active.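 Rule for the calls: active = median seed-adjusted z-score above 1 or below -1; inactive = the rest.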 Some of the results follow.

The experiment can be described thus: Novel Modifiers of Survival Motor Neuron (SMN) Protein: Gene Identification via Genome-wide siRNA Screen.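 Note: luminescence tracks full-length SMN protein made from the SMN2 reporter.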 Particulars: HEK293T SMN2-luciferase reporter, siRNA knockdown, 72 h; actives lie on both sides. A digest of the protocol: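 HEK293T cells stably expressing an SMN2 splicing/cDNA-luciferase reporter were reverse-transfected with a druggable-genome siRNA library and read by luminescence at 72 hours; hits defined by MAD score above 1.0 or below -1.0.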
For orientation: A reporter such as luciferase makes a cellular process visible.
For GGUGAGUGGUUGUUGCUCUTT against DALRD3, the median seed-adjusted z-score was inactive: 0.338.

On to GCUCCACAUUUAUCCAGCATT against ZNF599, for which the median seed-adjusted z-score is inactive: 0.0896. The same measure for GGAAUAUCUUUGACGGUUUTT against SCN1A: inactive: 0.031. The value for AACCAAAAUUUAUCACCCUTT against UBE2D4 was inactive: 0.232. The value for GCAGCAUCGUAUCCAUGAATT against KCNB1 was inactive: 0.0206; that for CCACGUUGAUUCAAGAUCATT against VPS35 was inactive: -0.511; that for GCAUCUCAGAUGUCAAUAATT against ZNF394 was inactive: -0.462. Take UCUACUGGUUGGUAACAAATT against RALA: the median seed-adjusted z-score is inactive: 0.553. The value for CUUCUAGACCUGCUCCAAATT against ISLR was inactive: 0.00807. The value for GACUUGAUGUCCAAACUGATT against PHF19 was inactive: -0.195; that for CCAUGUUGCUUCGCAUCAATT against NAPB was inactive: 0.716.

Consider CGACUUAAAGAAGCAGAUUTT against RBBP6, for which the median seed-adjusted z-score was inactive: -0.212. The same measure for GCCUGGAGAUGUUUACCAATT against TRIM63: inactive: -0.376; for GGCACGAGUUUGACAGUGATT against SNX26: inactive: -0.788. CAGUCAUUCUAAGAGUAGATT against SFRS4: the median seed-adjusted z-score was inactive: 0.239. Regarding CCACUCCAUUGAAGAUGUATT against SREBF1, the median seed-adjusted z-score was inactive: -0.0469. Consider GACUCAAUGCUACUAUCAATT against ADAM32, for which the median seed-adjusted z-score was active: 1.75.

With CCGUGUGGGUAAACACCUATT against ALDH1B1, the median seed-adjusted z-score was inactive: 0.105.

With GCUCGUGAUUGAUGCUGCATT against NGB, the median seed-adjusted z-score is inactive: 0. The same measure for GCGUGGUCAUCGUUGUCUUTT against MFSD10: inactive: 0.0116.

Turning to GGAUGACCAUGUACCUCUUTT against GPRC5B, the median seed-adjusted z-score was inactive: 0. The value for CAUUGACCGAUUGAAGGUATT against APOL3 was inactive: -0.0761.

As for CCUUUGUGGACUACAGUAUTT against RNF166, the median seed-adjusted z-score was inactive: -0.3. The same measure for GGUUAACCCAGAACGUAAATT against TCP1: active: -1.02; for GGAGAUACCAGGAACCCAATT against SLC7A13: inactive: 0.121; for AACAAUCUGUGGAUGGAAATT against BTF3: inactive: 0.0468. GUGGUACAAUUUAAUGAUATT against ALDH5A1: the median seed-adjusted z-score is inactive: 0.339.

For the sequence GGAGUGAAAUUUUCUGCAATT against PCNA, the median seed-adjusted z-score is inactive: 0.0727. The value for CGUGCAUGCUGUUAAGGAATT against ZNF652 was inactive: 0; that for GAAUCGACAUUCUCAUUAATT against DECR2 was inactive: 0; that for CUACAGUGAUGUGGAGAAATT against HPX was inactive: -0.451. The value for CCAUUGACAAUUCAACUUATT against ST8SIA1 was inactive: -0.25; that for AUACUAACAUUUUCAUUGATT against SSX2 was inactive: -0.583.

As for GAUCAAGUAUGGACACUGATT against OGG1, the median seed-adjusted z-score was inactive: -0.128.

For the sequence CCCUGCUCCUCACUCAUUUTT against KRTAP5-5, the median seed-adjusted z-score was active: -1.07.

Take GGAUAAAAGUACUGUAUGATT against DEGS1: the median seed-adjusted z-score is inactive: 0.0268. Regarding GCUUCUCACGAGAUUGAAATT against SCARA3, the median seed-adjusted z-score was inactive: -0.05.

With CAAUGACUGUAGCAUUCAATT against PTPN18, the median seed-adjusted z-score is inactive: -0.206. The value for GUUUGUCUGUCAUUACUCATT against RNMT was inactive: -0.281; that for CCAGAACCUCAUUGACUUUTT against TSPAN17 was inactive: -0.0774; that for CCUUCAGCAUGAUCAAAUUTT against ZNF260 was inactive: -0.682. As to GGACACUUCUUGGAGAUUUTT against FOXE3, the median seed-adjusted z-score is inactive: -0.451.

Turning to GCUGUUCGCUGAAGGAGGATT against HOXD9, the median seed-adjusted z-score was inactive: -0.123. The value for GCACGGUUCAAGAAAUUGATT against ISOC1 was inactive: 0.104. The same measure for GGCUUCAGCUGAAUACCAATT against MYLIP: inactive: 0.652. UGACCAGGCACUACCGUAATT against KLF4: the median seed-adjusted z-score was inactive: 0.883. The value for GGCUCAGCAGAUUACCACATT against TAAR5 was inactive: 0.573; that for GGAACAUCGAAAUCGUGUATT against DDX6 was active: 1.12. The value for GCUUCGAGCUGAUGUGACATT against LGTN was inactive: 0.491. The same measure for CCGUAAUUGUGGAACAUGUTT against ELF1: inactive: 0.0269; for GCCUCUUGCUAGGCAUAGCTT against CLDN15: inactive: 0.973; for GGAUCUUCGUGGAACGGAUTT against PDE1B: inactive: -0.384. With CCCACGAUCUGAAUCAACATT against RNF12, the median seed-adjusted z-score is inactive: 0.29. The value for GGUUAUACUCUGGAUGUAATT against HNRNPR was inactive: 0.308; that for GGAAAGAAGGGAAUGAGUUTT against ZMAT3 was inactive: 0.979; that for CCCUGACAGAGAUAGAGCATT against RORC was inactive: -0.243.

In the case of GACUCUUACCGAAGGGUUATT against MATR3, the median seed-adjusted z-score is inactive: -0.259. The same measure for GGCUGUGCAUAAACGAGAATT against GTF2E1: active: 1.76.

Take AUAUGAACAUGGGUAUGAATT against ZIC2: the median seed-adjusted z-score was inactive: -0.162.

With GCUCACAACUUAUUAAACATT against ZNF566, the median seed-adjusted z-score is inactive: 0.0702. The same measure for GAACAACUGUGCAUUCUUATT against RAP1B: inactive: -0.0262. Regarding CAACGAUACCCAGAUCAAATT against CDC45L, the median seed-adjusted z-score was inactive: -0.599. As for GAAGAUCAGUAUAUGAAAATT against BLVRA, the median seed-adjusted z-score is inactive: 0.212. The value for CUUACCUGCUUUUCCAUUATT against KRT34 was inactive: 0.124; that for AGACUGUCGUGGGCUUGUATT against MYH7 was inactive: 0.659; that for UGAUCAGUCGCAUCGAAUATT against CSNK1D was inactive: 0.202. Take GCACAAGUGCUGAGCCAGATT against LENG9: the median seed-adjusted z-score was inactive: 0.607. The same measure for GCUACAAGGAUUUCCAUUUTT against SNRPB2: inactive: -0.967; for CUCAAGCAUUUGUAUCGAATT against PLD5: inactive: -0.0377; for CUAAGCUUCUGGUACAGAATT against CA14: inactive: -0.308. The value for GGGCAUUUUAGUCAAGAAATT against ZNF383 was inactive: -0.196. The same measure for GGACCUUCUGAGUACCAGATT against COPS5: inactive: -0.124; for GCAAUGGAGUGACUAAUCUTT against RFXDC2: inactive: 0.724; for AGAUGUACCUGUUCGUGUATT against DNASE1L2: inactive: -0.228. GAACUUUGCCGGUUCUCAATT against PET112L: the median seed-adjusted z-score was inactive: 0.235. The same measure for GUAUAGGGCCUGUAAGUUUTT against LANCL1: inactive: 0; for CAGCUUCAGUCAGCAGUUATT against FOXO4: inactive: -0.0576. The same measure for CAACCAACCUGCAUCUAGATT against TRIM33: inactive: 0.316. The value for GGAACUGUCUAGUAUCUUATT against IL6ST was inactive: -0.518. As to ACAAGUUGCCCAACACCAATT against HOXB4, the median seed-adjusted z-score is inactive: 0.149.

For the sequence GCUUUAGACCCACUGCUAATT against STK24, the median seed-adjusted z-score is inactive: 0.0531. For the sequence GAGCGAAUAUUGGUGUAUUTT against ATP6V0A2, the median seed-adjusted z-score is inactive: 0.236. The same measure for AAGACAGCCUUGUAGAUGATT against TXNDC13: inactive: 0.365; for GAUCCAACAGGAAAGGUGATT against IGHMBP2: inactive: -0.271. The same measure for GGUCAAAUCAGCAAAGGUUTT against RNF25: inactive: -0.0826. The value for GGUCUUCUGUGGACAUGUATT against BZW2 was inactive: 0.0649. Regarding GGACCUUGCAGCAUUGUAATT against CCR4, the median seed-adjusted z-score was inactive: 0.

For the sequence GAGCUAUUGAGAAUCGCAATT against ATP2B1, the median seed-adjusted z-score was inactive: -0.459. For the sequence GGACCUGAAGGACACCUAUTT against MYL5, the median seed-adjusted z-score is inactive: 0.097. For the sequence AAAUCUUCGUGAAAGAUCUTT against KLKBL4, the median seed-adjusted z-score is inactive: -0.0132.

For GGUUCCUACGCAAAAGUCATT against TSSK2, the median seed-adjusted z-score is inactive: -0.064. Take CUAGAACUCAUGCAACGAATT against DQX1: the median seed-adjusted z-score was inactive: -0.297. The same measure for GGAUGUUUGCCCAUACUGATT against HCRTR2: inactive: -0.236.

As for GGAUCGAUAUCAAGAUAUUTT against AVEN, the median seed-adjusted z-score is inactive: 0.184. The same measure for GAAUCUGGACUAUUAGCGATT against OSBPL11: inactive: 0.535. The same measure for GCGGAUCUCUGUAGACGAATT against MAPK9: inactive: 0.211; for GGAGAGCAUGUUAAGCGAATT against SKIL: inactive: -0.868. For CCAUGACCCUGAUAUCUCATT against CELSR2, the median seed-adjusted z-score is inactive: -0.493.

CCAACAUAAUGAUCGAAUUTT against ENPP4: the median seed-adjusted z-score is inactive: 0.

In the case of GCAGCGGCAUUUGGACAAATT against MKRN3, the median seed-adjusted z-score is inactive: 0.402. The value for GGACCUAAUUUGCUUCAAATT against HINT3 was inactive: 0; that for GUCACGAAAUGACAGCAUUTT against MPL was inactive: -0.0153; that for CACUAUCUAUUCCACCUUUTT against HTR1A was inactive: 0.

For the sequence CCUGGAAAGUACUCUAGAATT against PGS1, the median seed-adjusted z-score is active: 1.36. The same measure for GCAGCGUGUUUUUCCGGAATT against RP2: inactive: -0.655. The same measure for AAACCACACUAGGCAAAGATT against TAF9: inactive: 0.829; for CCUUCUCCGUGAUUGAGGATT against LGI4: inactive: -0.239. In the case of CCAUGGGAAUGUUGCUGAATT against HPX, the median seed-adjusted z-score is inactive: -0.451.
